Hit rate of the full screen: of about 31,000 sequences, about 1,400 (4.5%) were called active.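 How the source made its calls: active means median seed-adjusted z-score above 1 or below -1; inactive means the rest.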 This is one part of the list.

The experiment can be described thus: Novel Modifiers of Survival Motor Neuron (SMN) Protein: Gene Identification via Genome-wide siRNA Screen.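 Further: luminescence tracks full-length SMN protein made from the SMN2 reporter.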 The settings on record: HEK293T SMN2-luciferase reporter, siRNA knockdown, 72 h; actives lie on both sides. Summed up:
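Luciferase signal, proportional to full-length SMN made from an SMN2 cDNA reporter in stable HEK293T cells, was read 72 h after siRNA reverse transfection. Values were expressed as MAD scores after non-targeting-control normalization and log10 conversion; seed analysis flagged off-targets.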
Regarding GUAUCGGACAUGAUCCUCATT against RABGGTB, the median seed-adjusted z-score was inactive: -0.856. On to GGCUAUACGAUUUACUCUATT against HTR7, for which the median seed-adjusted z-score is inactive: -0.0111.

Regarding GACUGACAGGUGUCGCUUUTT against IKBKAP, the median seed-adjusted z-score is inactive: -0.0316. The value for GAAUGUCUCCAUCAAUACATT against TES was inactive: -0.698; that for GCACCUAUAAGGAUGGGAATT against CTSZ was inactive: -0.393.

With GAGCUGACCUUGAACGAGATT against CHGB, the median seed-adjusted z-score was active: -1.29. For CCAUUACGCAGAUUAAGUATT against EIF3I, the median seed-adjusted z-score is inactive: -0.0445. As for GUCUCGUCGUUUUGAUGAATT against PRKCH, the median seed-adjusted z-score is inactive: 0.761. The value for CUACAUUGCUGGGACUAAUTT against RRM1 was active: -5.51; that for GCUUGAUGGUUCAACUCCATT against PMPCB was inactive: 0.507; that for GAAACUUGCUGGAUAUGAUTT against DGUOK was inactive: 0.0168.

For the sequence CCUGAACCGUAUAUCCUAUTT against HEXA, the median seed-adjusted z-score is inactive: -0.551. As to CCUGAUCUGUGGAGAUGAATT against AR, the median seed-adjusted z-score is inactive: -0.559. In the case of AUACUCUCCCAGAUUUUUATT against CDX2, the median seed-adjusted z-score was inactive: 0.23. In the case of GAAGAGUACUCAACAGGGUTT against NTNG1, the median seed-adjusted z-score was inactive: 0.0823.

Regarding AGACCUGUCCAUUCGCUCATT against STAT6, the median seed-adjusted z-score is inactive: 0.28.

Consider GCCAGAAUCCUUUAGCAGUTT against CRTC1, for which the median seed-adjusted z-score was inactive: 0.00363. With GGAAUGAUAUAAGCUGGAATT against SIGLEC7 the figure was inactive: -0.296.

GGACGUGCAGGAUUAGUCATT against PARP15: the median seed-adjusted z-score was inactive: -0.332. Take GCACUUAGGUCAUAUGGGUTT against UNC13C: the median seed-adjusted z-score is inactive: -0.136. Turning to GGGAUCAAACAAUAAGUUATT against RPGR, the median seed-adjusted z-score is inactive: 0.1. Consider GGGAGGCCGUGAGUAUCUATT against CBLC, for which the median seed-adjusted z-score is inactive: -0.726. With GGAUCAUAGUGCUGGCAAATT against ABCC6 the figure was inactive: 0.108; with CCAUUUCAGAUUAUCCGAATT against PTER, inactive: 0.75; with GCCUAUUCCUAACUGAUCUTT against 2-Sep, inactive: 0.0349.

For UGAACUAAGCGAUAACAGATT against ANP32A, the median seed-adjusted z-score was inactive: 0.377. On to GAGCUGCCCUGAGAAAGCATT against ZFP42, for which the median seed-adjusted z-score was inactive: -0.537. Take GAUGAUGAAUAGUAGUAUUTT against DLG1: the median seed-adjusted z-score was inactive: 0.0642.

Regarding CGAAAUCAUUUUGCCGAGATT against KIF4A, the median seed-adjusted z-score was inactive: -0.156.

Regarding CGUGUACCUCAAGACCUAUTT against HIPK3, the median seed-adjusted z-score is inactive: -0.00424.

Take GCACAUUGCUGAUUACCUATT against SLC27A2: the median seed-adjusted z-score is inactive: -0.647. The value for GGCUCAACAUUGAAAUGCATT against TLE2 was inactive: 0.00566; that for AGCCCAUCACAAAACAAGATT against LILRA1 was inactive: -0.231.

Consider CCAUGCUUGCUGUUCAUUUTT against SELI, for which the median seed-adjusted z-score is inactive: 0. For UGAUGGAGCUUAUUGUCAATT against NEUROG2, the median seed-adjusted z-score was inactive: -0.366.

Consider CCAAGAAGCUUUACAUCCATT against MAOA, for which the median seed-adjusted z-score is inactive: 0.665.

As for GGAAGGAUUUAGAAGCCUATT against LIN28B, the median seed-adjusted z-score is inactive: 0.407. With GGUGGUACAAGAGAACGAATT against JARID2 the figure was inactive: 0.115. For GGAAGACCUUGUUCCGUAUTT against COG8, the median seed-adjusted z-score was inactive: 0.0438. With CCAGCGAUAUGUUCAACUATT against SPINT2 the figure was inactive: 0.00974; with CUAACUACCCAGACCCUUATT against MFRP, inactive: -0.209; with GCUAUUGAAAGUACACCUATT against NARG1, active: -1.02. The value for AGCUAAAUCAAGGACCUCATT against DLX4 was inactive: -0.0473.

In the case of GGCCUGGGAAGUGAACAAATT against FAAH, the median seed-adjusted z-score was inactive: 0.373. For the sequence CGACCGCUACUAUUAUGAATT against TSHZ1, the median seed-adjusted z-score was inactive: 0.526. The value for AAAAGAGUAUCUUUGUUUUTT against NDUFB6 was inactive: -0.357; that for CCCUAAUAAGAUAAGGAAATT against RPP38 was inactive: 0.07; that for GUUAUUAUCUGCAUCUUUATT against NMUR1 was inactive: -0.265.

GGAAGUACCUGGAACUGUATT against ADAM33: the median seed-adjusted z-score was inactive: -0.038. For GGAUCUGUCUGAUCGAUUUTT against RBBP8, the median seed-adjusted z-score was inactive: 0.323. GAAGAUUUCUAACGACCCATT against OSGEP: the median seed-adjusted z-score is inactive: 0.0178. On to GGAUCGGGUUUACUCAGAATT against ACTR6, for which the median seed-adjusted z-score was inactive: 0.189.

For the sequence GAGGCUACAAGGUCCGUUATT against FGFR1, the median seed-adjusted z-score is inactive: -0.562. For the sequence GCAAGUUGGAUGUCGGGAATT against BCAP31, the median seed-adjusted z-score was inactive: 0.277. With GCAUGAACGCGGUCAUGAUTT against RAB40C the figure was inactive: -0.161. On to CACUUAAACCACCACCUGATT against DNAJC5G, for which the median seed-adjusted z-score is inactive: 0.0656. With GGAGCGUGAUGAAUCCAGUTT against INPP5D the figure was inactive: 0.0116; with GUUCUUUCCUGGUACGAGATT against SOCS7, inactive: 0.179; with GGCUCAAAGUCCAGCUGAATT against BRUNOL5, inactive: 0.333.

On to GCUGAUAUGUUUAGUUCAATT against MAP3K7IP3, for which the median seed-adjusted z-score was inactive: 0.267. With CCAUGUCUCUUUUCGGGAATT against IL1RL2, the median seed-adjusted z-score was inactive: -0.555. AGAUUACUCAGAGAUUAUATT against PDCD2: the median seed-adjusted z-score is inactive: -0.232.

With GGAUAACUUCUCCUUGUCATT against PRM3, the median seed-adjusted z-score is inactive: 0.249. The value for CCUCAACAAUGGAAGGUUUTT against ACADVL was inactive: -0.476; that for GGUGAGAUGUUAGAUAACATT against STX3 was inactive: 0.686; that for GGAAAGCAAACGAAUCCAATT against TCEB3B was inactive: 0.0434. Regarding GCUCCUCUCUUAGAUCUAATT against PHF7, the median seed-adjusted z-score was inactive: 0.425. With CCACUCAACUUGGCUCACATT against DTNA the figure was inactive: 0; with GCACUUACAGAGUAUAUCATT against TESK2, inactive: 0; with CAUUCGAUCAGAGAGCAUATT against ATG16L1, inactive: -0.187. With GUGUCGCUACAGAUUCAAATT against ZSCAN20 the figure was inactive: -0.099; with GGAUUGAAGGUACCAAGGATT against ATP13A1, inactive: 0.488; with GGUCGAAUCUGGAAUGGGATT against KCNK15, inactive: -0.218. As to GGAUAUCGAUGAGUGCAGATT against NOTCH4, the median seed-adjusted z-score is inactive: -0.384.

On to GCUUAUUGGUUCUCCGUUATT against ITGA1, for which the median seed-adjusted z-score is inactive: 0.0281. With CAGUGUCACAGGUAUCCAATT against PBX3 the figure was inactive: 0.847; with GCGAAACCAGGUUCACAGATT against TRPC4AP, inactive: 0.106. Regarding GUGUUGUUGGAAUAACAUATT against USP31, the median seed-adjusted z-score was inactive: -0.755. Turning to GCAUCUCAGCAGUAGGGAATT against IPO5, the median seed-adjusted z-score was inactive: -0.299. As for GGGCUAGAUCUGUAUCUUATT against TSC22D3, the median seed-adjusted z-score was inactive: 0.0129.

As for UCAAUUUGGUUGUUGCGAATT against UGT1A10, the median seed-adjusted z-score was inactive: 0.286. On to CGUUUUUCGUCUCCAUCAUTT against A4GALT, for which the median seed-adjusted z-score was inactive: -0.286.

Turning to GCCUGUCAAGGAAAGUACATT against ALDOA, the median seed-adjusted z-score was inactive: -0.258.

In the case of GACCUAUAGCUACUGGAUATT against IFT88, the median seed-adjusted z-score was inactive: 0.189. As for GCAGUGACAUCUACAGGCATT against MEGF9, the median seed-adjusted z-score is inactive: -0.0893. The value for GGAAAACAAGUGGUCGUUATT against COX7C was inactive: -0.461; that for GGAUGGAAGAUACAUAACATT against PREX2 was inactive: -0.0625.

Regarding CCUGUUACAUGUAAUAAGATT against RBM34, the median seed-adjusted z-score is inactive: 0. Regarding GCACCUCGAGGACAGAACATT against AMACR, the median seed-adjusted z-score was inactive: -0.591. On to CUAUGUUUCUUGACUCGAATT against CENTB2, for which the median seed-adjusted z-score is inactive: 0. As to GGCACUCUCUAUUCAGAAATT against NAPG, the median seed-adjusted z-score was inactive: 0.0128. In the case of CCAAGCAAAUAGUAGAAGATT against CYLC1, the median seed-adjusted z-score was inactive: 0.177. As for GAGACGAGGAGGAAACUUUTT against DDX27, the median seed-adjusted z-score was inactive: -0.131.

For CGGAGUACUUGGAAGCCUATT against CACNB1, the median seed-adjusted z-score was inactive: 0.225. With GAUUGGACCUUGUGAAGGATT against GLUL, the median seed-adjusted z-score is inactive: -0.307. GGACGGUUUAAGGAACAGATT against SEMA6D: the median seed-adjusted z-score is inactive: 0.0624.

Turning to CUCUUGUACCAGUUCCUGATT against SLC25A35, the median seed-adjusted z-score was inactive: -0.762. Consider CCACUAACGUGAUAAUACUTT against NUP88, for which the median seed-adjusted z-score was inactive: 0.709. Regarding AGGGAUACCUUUUUCCUCATT against B4GALNT4, the median seed-adjusted z-score is inactive: -0.567. Turning to GCAAUUGUCUACCCAUUUATT against P2RY5, the median seed-adjusted z-score is inactive: 0.0278.

With GCAGUGACAUUGUACAGAATT against PDE3A, the median seed-adjusted z-score was inactive: 0.291. With GCCCUAUACAUACAGUUCATT against ZFP112, the median seed-adjusted z-score was inactive: -0.449. Turning to GGGAGUUUCUUGUGCAAGATT against CCBP2, the median seed-adjusted z-score is inactive: -0.0896. Consider GCCCUGAAAUGCAUCCGCATT against CLDN18, for which the median seed-adjusted z-score is inactive: 0.000299. Consider GGUUGACUCAGAUACUACATT against CENPE, for which the median seed-adjusted z-score was inactive: 0.298. With GGGAUACGGCAAGCAUGAATT against DUSP26, the median seed-adjusted z-score was inactive: 0.204. With AGGCUUUGCUUGAAGUCAATT against MSLN the figure was inactive: -0.344.

The values above are taken from PubChem BioAssay AID1347426 (Functional Genomics Laboratory (NCATS/FGL), 2020).
